# Measurements as given in PubChem BioAssay AID2417 (National Center for Advancing Translational Sciences (NCATS), 2010).
# Among all 140,000 compounds or so, about 4,300 (3.1%) were called active. Inconclusive results, whose numbers are uncertain, are shown with a selection of clear calls.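 How the source made its calls: active means readout at or below -70, meaning at least 70% loss of cells showing the perinucleolar compartment, a nuclear body marking cancer cells; inconclusive means readout between -30 and a set limit; inactive means the rest.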
# Test: High Content Assay for Compounds that inhibit the Assembly of the Perinucleolar Compartment;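 further: plate controls were DMSO wells for no effect and camptothecin positive control wells for full effect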
# Conditions: PC3M PTB-GFP, PNC prevalence imaging, 16 h; at 10 µM; active compounds read low
# Procedure, shortened: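 Read-out is percentage of cells bearing a perinucleolar compartment, from automated 20x imaging of fixed, Hoechst-stained PC3M PTB-GFP cells. Cells were seeded 4 h, then exposed 16 h to compound (23 nl of library stock) in duplicate plates.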
row,SMILES,"activity change (PNC), negative = inhibition"
1,Cc1cccc(NS(=O)(=O)c2c(C)n[nH]c2C)c1,inconclusive: -30.2%
2,CCOC(=O)c1ccc(N2C(=O)CC(SCC(N)C(=O)OCC)C2=O)cc1 (stereo not drawn),inactive: 16.3%
3,CCOC(=O)C1CCN(c2c(NCCCN(CC)c3ccccc3)c(=O)c2=O)CC1,inactive: 22.8%
4,CC(C)(C)C(=O)Cn1c(=N)n(Cc2ccccc2Cl)c2ccccc21,inactive: 33.1%
5,Cc1ccc(-c2nn(C)c(=O)c3ccccc23)cc1S(=O)(=O)NCCN1CCOCC1,inconclusive: -37.8%
6,O=c1[nH]c(NCc2ccco2)nnc1Cc1ccccc1Cl,inconclusive: -37%
7,CC(C)Cc1nc2oc3c(NCC4CCCO4)ncnc3c2c2c1CCC2 (stereo not drawn),active: -100%
8,Cn1c(CC(=O)Nc2ccccc2)nnc1SCC(=O)c1ccccc1,inconclusive: -34.4%
9,Cn1c(=O)c2c(nc(CN3CCN(c4ccccc4F)CC3)n2CCN2CCOCC2)n(C)c1=O,active: -100%
10,O=[N+]([O-])c1ccc(Oc2ccc(S(=O)(=O)N3CCCCC3)cc2)cc1,inconclusive: -39%
11,NS(=O)(=O)c1ccc(NCc2cc(Cl)ccc2OCc2ccccc2F)cc1,inactive: -11.1%
12,Cc1c(Cc2ccccc2)c(=O)oc2cc(OCC(=O)c3ccccc3)ccc12,inconclusive: -43.9%
13,CCOC(=O)N1C(=O)C2(CCCCC2)N(c2ccccc2Cl)C1=S,inactive: -10.5%
14,O=C(N/N=C/c1c[nH]c2ccccc12)C1COc2ccccc2O1 (stereo not drawn),inconclusive: -53%
15,Cc1ccc(CNC(=O)/C=C/c2ccc(S(=O)(=O)N3CCOCC3)cc2)cc1,inconclusive: -39.6%
16,Cc1ccc(-c2cc(-c3ccccc3C)[nH]n2)c(O)c1,inactive: 26%
17,CN(C)c1ccc(C2C3=C(CCCC3=O)OC3=C2C(=O)CCC3)cc1,inconclusive: -63.5%
18,O=C(CNC(=O)c1ccc(Cl)cc1Cl)OCC(=O)c1ccc2c(c1)OCCO2,inconclusive: -79.6%
19,CCOC(CNC(=O)CCc1c(C)nc2nc(C)nn2c1C)OCC,inconclusive: -46.4%
20,Cn1c(CN2CCCCC2)nc2cc(NS(=O)(=O)c3ccc(Cl)cc3)ccc21,inactive: -6.83%
21,CSc1nsc(SC)c1C(=O)NCCNS(=O)(=O)c1ccc(C)cc1,inconclusive: -67.3%
22,CC(C)c1ccc(N2CC(C(=O)Nc3nccs3)CC2=O)cc1 (stereo not drawn),inactive: 21.8%

# As a short view, two of the compounds above:
row,SMILES,"activity change (PNC), negative = inhibition"
8,Cn1c(CC(=O)Nc2ccccc2)nnc1SCC(=O)c1ccccc1,inconclusive: -34.4%
9,Cn1c(=O)c2c(nc(CN3CCN(c4ccccc4F)CC3)n2CCN2CCOCC2)n(C)c1=O,active: -100%

# Additional structures:

row,SMILES,"activity change (PNC), negative = inhibition"
1,Cc1cc(C(=O)CSc2nc3ccccc3c(=O)[nH]2)c(C)n1C,inconclusive: -46.4%
2,O=S(=O)(c1cccs1)N1CCCc2cccc(O)c21,inconclusive: -45.7%
3,CC1=CC(=C2C(=O)c3ccccc3C2=O)C=C(C)O1,inactive: 45.2%
4,CCOC(=O)c1csc(NC(=O)CSc2nnnn2-c2ccc3c(c2)OCCO3)n1,active: -87.6%
5,Cc1ccc(S(=O)(=O)Nc2ccc(NC(=O)Nc3cccc(C(F)(F)F)c3)cc2)cc1,inconclusive: -40.5%
6,CCOC(=O)CCSc1nc(C)c2cc(C)ccc2n1,inconclusive: -35.2%
7,N#CC1=C(N)OC2=C(C(=O)CC(c3ccccc3)C2)C1c1cccnc1 (stereo not drawn),inconclusive: -31.8%
8,O=C(N/N=C/c1ccncc1)C1C2CCCCCCC21 (stereo not drawn),inconclusive: -60.5%
9,COC(=O)COc1cccc(NC(=O)c2cccs2)c1,active: -118%
10,N#Cc1c(Oc2ccc3ccccc3c2)sc(C(=O)c2ccccc2)c1N,inactive: 6.72%
11,NC(=O)CN1CCOCCOCCN(CC(N)=O)CCOCCOCC1,active: -106%
12,CN(Cc1ccccc1)c1nc(N)c([N+](=O)[O-])c(NCc2ccccc2)n1,inactive: 30.7%
13,Cc1ccccc1CSCC(=O)N1CCN(c2ccccc2)CC1,inconclusive: -39.9%
14,COc1ccc(N/C(=C(/C(Cl)=C(Cl)Cl)[N+](=O)[O-])n2nnc3ccccc32)cc1,inactive: 29.7%
15,COCCNC(=O)C(c1ccccc1C)N(C(=O)Cn1nnc2ccccc21)c1cccnc1 (stereo not drawn),inconclusive: -52.4%
16,Cc1nc2nc(-c3cccnc3)[nH]n2c(=O)c1C,inactive: -20.4%
17,CC1=C(C(=O)Nc2ccc(F)cc2)C(c2ccc(C)o2)C2=C(CC(C)(C)CC2=O)N1 (stereo not drawn),inconclusive: -36%
18,COc1ccc(/C=C2/SC(=O)N(CCC(=O)Nc3ccc(C)cc3)C2=O)cc1OC,inactive: 3.31%
19,CC12CC3CC(C)(C1)CC(CN1CCOCC1)(C3)C2,inconclusive: -30.7%
20,CCSc1cc(N2CCOCC2)nc(-c2ccc(Cl)cc2)n1,inconclusive: -38.8%
21,COc1ccc(-c2nnnn2C)cc1S(=O)(=O)NCCc1ccccc1,inconclusive: -32.4%
